Test results taken from article PMC7188849.

Sequences of proteins named here, by UniProt entry; tags and fusion partners are left off. A change or cut given only in a name is not applied to a line headed by its entry.
UniProt Q14192: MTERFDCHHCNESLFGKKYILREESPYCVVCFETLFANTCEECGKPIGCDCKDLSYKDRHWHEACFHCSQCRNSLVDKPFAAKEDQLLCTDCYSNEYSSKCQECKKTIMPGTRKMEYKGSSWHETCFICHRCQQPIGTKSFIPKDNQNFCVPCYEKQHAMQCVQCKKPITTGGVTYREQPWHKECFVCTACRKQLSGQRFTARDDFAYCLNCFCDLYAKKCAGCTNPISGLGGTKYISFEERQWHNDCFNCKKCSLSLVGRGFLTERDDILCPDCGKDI

Molecular target: T1, HA-tagged p57 wildtype (human) (UniProt P49918)
T1 sequence: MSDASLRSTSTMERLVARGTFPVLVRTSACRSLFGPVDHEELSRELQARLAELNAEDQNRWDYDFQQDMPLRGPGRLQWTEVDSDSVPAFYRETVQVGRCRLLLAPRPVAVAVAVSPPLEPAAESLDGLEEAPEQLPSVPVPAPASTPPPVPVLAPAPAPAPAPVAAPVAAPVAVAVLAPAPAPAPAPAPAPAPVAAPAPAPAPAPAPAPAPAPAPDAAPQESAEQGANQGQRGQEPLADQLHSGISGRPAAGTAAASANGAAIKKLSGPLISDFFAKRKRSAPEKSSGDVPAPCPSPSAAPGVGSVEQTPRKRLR
Assay: co-IP; HA-IP of HA-p57 from lysates of transfected 293 T cells, 4 hours at 4 °C, IP-buffer; bound FLAG-FHL2 proteins detected with anti-FLAG, endogenous CDKs with anti-PSTAIR

With “FLAG-tagged FHL2 LIM2-4 mutant (from UniProt Q14192) (domain or fragment)” the binding was “binds”.

These are yes or no findings as the source states them, for the method shown. Binding seen in cells or lysates may run through a third protein. Binding can be weak; no strength is given. Sequences can lack the tags named with a protein.
